Measured values published in patent EP1239867B1, “METHODS FOR TREATING AND PREVENTING DAMAGE TO MUCOSAL TISSUE” (University of Southern California, priority 1999, dated 2005).
“Also recorded” adds a separate entry of the source. Part of at least one peptide drawing is inferred or uncertain, most often the ends. Ends that are not written are not given here.

Assay: Unspecified activity test of AII fragments (no method given)
Details: test not specified

YIHPF [AII(4-8), Tyr-Ile-His-Pro-Phe]
effectiveness (in words): not to be effective; also recorded: ineffective in repeated tests
